{"source": "PubChem BioAssay AID686937 (Drosophila RNAi Screening Center, 2013)", "purpose": "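Knock-downs that reduce output of a secreted reporter enzyme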 (primary screen)", "cell system": "Drosophila S2 cells expressing secreted horseradish peroxidase", "reagents": "long dsRNA against Drosophila genes", "timing": "about 5.5 days (5 days dsRNA, then 12 h reporter induction)", "conditions": "reporter expression induced after 5 days of dsRNA, read 12 h later; inducer not stated", "read-out": "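Chemiluminescent measurement of peroxidase in the medium 12 h after reporter induction, following 5 days of dsRNA, given as a z-score per plate; higher means more secretion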", "scale": "z-score: higher = more reporter secreted into medium", "note": "The deposit covers about 23,000 reagents; shown is a random part of those that have a named target and a result. 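Reduced-secretion tags in replicate 1 do not always agree with the z-scores; no criterion for assigning the tags was given.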 The numbers tell different reagents against one gene apart. Further read-outs or replicates are left out here. Reagent sequences are not shown. The record does not give: the amount of reagent."}
{"gene":"Rpn2 (Regulatory particle non-ATPase 2)","dsRNA no.":1,"z-score, replicate 1":-8.11}
{"gene":"tey (teyrha-meyrha)","dsRNA no.":1,"z-score, replicate 1":-3}
{"gene":"tey (teyrha-meyrha)","dsRNA no.":2,"z-score, replicate 1":1.44}
{"gene":"l(2)k14505 (lethal (2) k14505)","dsRNA no.":1,"z-score, replicate 1":0.29}
{"gene":"CIAPIN1 (Cytokine induced apoptosis inhibitor 1)","dsRNA no.":1,"z-score, replicate 1":0.07}
{"gene":"CG12081","dsRNA no.":1,"z-score, replicate 1":0.19}
{"gene":"CG7881","dsRNA no.":1,"z-score, replicate 1":0.12}
{"gene":"Cp7Fc (Chorion protein c at 7F)","dsRNA no.":1,"z-score, replicate 1":0.3}
{"gene":"Ca-alpha1T (Ca[2+]-channel protein alpha[[1]] subunit T)","dsRNA no.":1,"z-score, replicate 1":0.32}
{"gene":"Ca-alpha1T (Ca[2+]-channel protein alpha[[1]] subunit T)","dsRNA no.":2,"z-score, replicate 1":0}
{"gene":"Ca-alpha1T (Ca[2+]-channel protein alpha[[1]] subunit T)","dsRNA no.":3,"z-score, replicate 1":0.26}
{"gene":"Ca-alpha1T (Ca[2+]-channel protein alpha[[1]] subunit T)","dsRNA no.":4,"z-score, replicate 1":0.15}
{"gene":"Ca-alpha1T (Ca[2+]-channel protein alpha[[1]] subunit T)","dsRNA no.":5,"z-score, replicate 1":0.04}
{"gene":"Cht2 (Chitinase 2)","dsRNA no.":1,"z-score, replicate 1":0.24}
{"gene":"Dh44-R1 (Diuretic hormone 44 receptor 1)","dsRNA no.":1,"z-score, replicate 1":0.48}
{"gene":"CG17601","dsRNA no.":1,"z-score, replicate 1":0.57}
{"gene":"mh (maternal haploid)","dsRNA no.":1,"z-score, replicate 1":0.14}
{"gene":"HDAC4 (Histone deacetylase 4)","dsRNA no.":1,"z-score, replicate 1":0.19}
{"gene":"RnpS1 (RNA-binding protein S1)","dsRNA no.":1,"z-score, replicate 1":0.46}
{"gene":"CG14985","dsRNA no.":1,"z-score, replicate 1":0.27}
{"gene":"CG14985","dsRNA no.":2,"z-score, replicate 1":0.36}
{"gene":"PIP4K (Phosphatidylinositol 5-phosphate 4-kinase)","dsRNA no.":1,"z-score, replicate 1":0.44}
{"gene":"CG1275","dsRNA no.":1,"z-score, replicate 1":0.29}
{"gene":"CG18476","dsRNA no.":1,"z-score, replicate 1":0.05}
{"gene":"CG1983","dsRNA no.":1,"z-score, replicate 1":0.26}
{"gene":"Pepck2 (Phosphoenolpyruvate carboxykinase 2)","dsRNA no.":1,"z-score, replicate 1":0.51}
{"gene":"Pen (Pendulin)","dsRNA no.":1,"z-score, replicate 1":0.44}
{"gene":"CG8152","dsRNA no.":1,"z-score, replicate 1":0.32}
{"gene":"CG32847","dsRNA no.":1,"z-score, replicate 1":-0.93}
{"gene":"bsh (brain-specific homeobox)","dsRNA no.":1,"z-score, replicate 1":0.78}
{"gene":"Cyp1 (Cyclophilin 1)","dsRNA no.":1,"z-score, replicate 1":0.53}
{"gene":"Afg3l2 (AFG3 like matrix AAA peptidase subunit 2)","dsRNA no.":1,"z-score, replicate 1":-0.16}
{"gene":"CG16953","dsRNA no.":1,"z-score, replicate 1":0.45}
{"gene":"CG10209","dsRNA no.":1,"z-score, replicate 1":0.17}
{"gene":"CG17658","dsRNA no.":1,"z-score, replicate 1":0.53}
{"gene":"Pka-C1 (Protein kinase, cAMP-dependent, catalytic subunit 1)","dsRNA no.":1,"z-score, replicate 1":0.07}
{"gene":"CG17896","dsRNA no.":1,"z-score, replicate 1":0.08}
{"gene":"CG13589","dsRNA no.":1,"z-score, replicate 1":0.25}
{"gene":"CG7991","dsRNA no.":1,"z-score, replicate 1":0.51}
{"gene":"CG8173","dsRNA no.":1,"z-score, replicate 1":0.3}

5 successive entries already listed, quoted:
{"gene":"CG18476","dsRNA no.":1,"z-score, replicate 1":0.05}
{"gene":"CG1983","dsRNA no.":1,"z-score, replicate 1":0.26}
{"gene":"Pepck2 (Phosphoenolpyruvate carboxykinase 2)","dsRNA no.":1,"z-score, replicate 1":0.51}
{"gene":"Pen (Pendulin)","dsRNA no.":1,"z-score, replicate 1":0.44}
{"gene":"CG8152","dsRNA no.":1,"z-score, replicate 1":0.32}
